Laboratory results published in the supplement of paper PMC8732350.
Counter-ions that a name gives are not always drawn. ± gives the standard deviation of the averaged measurements. This is one part of the list. Single values are uncertain here, since repeats match poorly.

tested on: A549; assay: surface PD-L1 immunofluorescence intensity relative to IFN-gamma-only control (ratio); higher = more PD-L1 expression; details: 10 µM; exposure time 24 h; IFN-gamma 100 ng/mL

SMILES | surface PD-L1 immunofluorescence intensity
Cc1cc(SCc2sc(-c3ccc(C(F)(F)F)c(F)c3)nc2C)ccc1OCC(=O)O | 1.01
Cc1[nH]c2ccc(Cl)cc2c1C1=CCNCC1 | 0.86
NC(=O)C[S+]([O-])C(c1ccccc1)c1ccccc1 (stereo unspecified) [Modafinil] | 0.997
CC(C)(C)[C@]1(O)CC2OC(=O)CC23C(=O)OC2OC(=O)[C@H](O)C231 (stereo partly specified) [Bilobalide] | 1.02
O=C(O[C@H]1C[N+]2(CCCOc3ccccc3)CCC1CC2)C(O)(c1cccs1)c1cccs1 [Aclidinium Bromide] | 0.876
Clc1ccccc1C(c1ccccc1)(c1ccccc1)n1cccn1 | 1.05
CC(=O)NC1CCSC1=O (racemic) [N-Acetyl-DL-homocysteine Thiolactone] | 0.968
CC(Cc1ccccc1)NCCC(c1ccccc1)c1ccccc1 (stereo unspecified) [Prenylamine lactate] | 1
CN(C(=O)Cc1ccccc1)C(CN1CCCC1)c1ccccc1 (stereo unspecified) [N-MPPP Hydrochloride] | 0.926
CN1CCN(C(=O)OC2c3nccnc3C(=O)N2c2ccc(Cl)cn2)CC1 (stereo unspecified) [Zopiclone] | 1.1
Clc1ccc(C(OCCN2CCCCC2)c2ccccc2)cc1 (stereo unspecified) [Cloperastine hydrochloride] | 0.95
COc1cc2c(cc1OC)C1CC(=O)C(CC(C)C)CN1CC2 (stereo unspecified) [Tetrabenazine] | 0.987
CCNC(=O)[C@H]1O[C@@H](n2cnc3c(N)ncnc32)[C@H](O)[C@@H]1O | 0.962
CCCCC/C=C\C/C=C\C/C=C\C/C=C\CCCC(=O)Nc1ccc(O)cc1 | 1.1
Cc1cccc(C)c1NC1=NCCCS1 [Xylazine] | 1.06
O=C(Oc1ccc([N+](=O)[O-])cc1)N1CCC(C(O)(c2ccc3c(c2)OCO3)c2ccc3c(c2)OCO3)CC1 | 1.05
CCN(CC)CCO[C@H]1CC[C@@]2(C)C(=CC[C@@H]3[C@@H]2CC[C@]2(C)C(=O)CC[C@@H]32)C1 | 1
CN1C(=O)COc2c(C(=O)NC3CN4CCC3CC4)cc(Cl)cc21 (stereo unspecified) | 1.06
C[C@H](N)Cn1ccc2cc(F)c(Cl)cc21 [Ro 60-0175 fumarate] | 1.03
NC(=O)CN1CCCC1=O [Piracetam] | 0.899
COc1cc2c(cc1OC)C(C)NCC2 (stereo unspecified) | 0.938

SMILES | surface PD-L1 immunofluorescence intensity
NCc1cc(O)no1 [Muscimol] | 1.02
CC(C)c1c(CN(C)C(C)Cc2ccccc2)n(C)n(-c2ccccc2)c1=O (stereo unspecified) [Famprofazone] | 1.02
C=C(C)[C@@H]1[C@H]2OC(=O)[C@@H]1[C@]1(O)C[C@H]3O[C@]34C(=O)O[C@H]2[C@]14C [Picrotoxinin] | 0.931
Oc1ccc2c3c1O[C@H]1c4oc5ccccc5c4C[C@@]4(O)[C@@H](C2)N(CC2CC2)CC[C@]314 [Naltriben mesylate] | 1.03
O=P1(NCCCl)OCCCN1CCCl (stereo unspecified) [Ifosfamide] | 1
COc1ccc(C(=O)c2c(C)n(CCN3CCOCC3)c3cc(I)ccc23)cc1 | 1.06
C[C@@]12N[C@@H](Cc3ccccc31)c1ccccc12 [(-)-MK 801 hydrogen maleate] | 1.02
C[C@@]12N[C@@H](Cc3ccccc31)c1ccccc12 [(-)-MK 801 maleate] | 0.971
C[N+]12CCC(CC1)C(OC(=O)C(O)(c1ccccc1)c1ccccc1)C2 (stereo unspecified) [Clidinium bromide] | 1.01
CC(=O)OCC1=C(C(=O)O)N2C(=O)[C@@H](N)[C@H]2SC1 [7-Aminocephalosporanic acid] | 0.943
CC(=O)OCC1=C(C(=O)O)N2C(=O)[C@@H](N)[C@H]2SC1 [Cephalosporanic acid, 7-amino] | 0.985
CO[C@]12C[C@@H](COC(=O)c3cncc(Br)c3)CN(C)[C@@H]1Cc1cn(C)c3cccc2c13 [Nicergoline] | 0.977 ± 0.067
Cc1cccc([C@H](C)c2c[nH]cn2)c1C [Dexmedetomidine HCl (Precedex)] | 1.05
CCCN(CCC)[C@@H]1CCc2c(OC)cccc2[C@@H]1C [(+)-UH 232 maleate] | 0.975
CC(C)(C)NCC(O)c1ccccc1Cl (stereo unspecified) [Tulobuterol] | 1.02
C[C@]12Cc3c[nH]nc3C[C@@H]1CC[C@@H]1[C@@H]2CC[C@@]2(C)[C@H]1CC[C@]2(C)O [Stanozolol] | 1.02
Cc1nnc2ccc(-c3cccc(C(F)(F)F)c3)nn12 | 1.05
C#C[C@]1(O)C=C[C@H]2[C@@H]3CCC4=CC(=O)CC[C@@H]4[C@H]3CC[C@@]21CC [Gestodene] | 0.981
C[C@@H]1CC[C@H]2[C@@H](C)C(=O)O[C@@H]3O[C@@]4(C)CC[C@@H]1[C@]32OO4 [Artemisinin] | 0.965 ± 0.064
CCC1(c2cccc(O)c2)CCCCN(C)C1 (stereo unspecified) [Meptazinol hydrochloride] | 0.928
CCNC1(c2cccs2)CCCCC1=O (stereo unspecified) [Tiletamine hydrochloride] | 0.953

SMILES | surface PD-L1 immunofluorescence intensity
O=C1Nc2cc(Cl)c(Cl)cc2N2CCNCC12 (stereo unspecified) | 1.01
COc1ccc(C(=O)O[C@H]2CC[C@@]3(C)[C@@H]4CC[C@H]5[C@]6(O)C[C@H](O)[C@@]7(O)[C@@H](CN8C[C@@H](C)CC[C@H]8[C@@]7(C)O)[C@]6(O)C[C@@]53O[C@]24O)cc1OC [Veratridine] | 0.835
CC(C)(C)NCC(O)COc1cccc2[nH]c(C#N)cc12 (stereo unspecified) [Cyanopindolol hemifumarate] | 1.06
CCC(COC(=O)c1cc(OC)c(OC)c(OC)c1)(c1ccccc1)N(C)C (stereo unspecified) [Trimebutine] | 1.02
NCCc1c[nH]c2ccc(O)cc12 [Serotonin] | 0.96
NCCc1c[nH]c2ccc(O)cc12 [Serotonin hydrochloride] | 1.01
CCN(C(C)=O)c1cccc(-c2ccnc3c(C#N)cnn23)c1 [Zaleplon] | 1.05
CCC1(CC)C(=O)C=CNC1=O [Pyrithyldione] | 0.949
CCCOc1ccc2[nH]cc(C3=CCNCC3)c2n1 | 1.02
COc1ccc(Cc2nccc3cc(OC)c(OC)cc23)cc1OC [Papaverine hydrochloride] | 0.93
O=C1CSC(c2ccccc2Cl)c2cc(Cl)ccc2N1 (stereo unspecified) | 1.01
C[C@]12CC[C@H]3[C@@H](CC[C@@]45O[C@@H]4C(O)=C(C#N)C[C@]35C)[C@@H]1CC[C@@H]2O [Trilostane] | 1.03
COC(=O)C1=CCCN(C)C1 [Arecoline] | 1.04
CC(CN)CC(=O)O (stereo unspecified) [3-Methyl-GABA] | 0.961
Fc1ccc(C(OCCN2CCN(CCCc3ccccc3)CC2)c2ccc(F)cc2)cc1 | 1.0465 ± 0.00067
CC(C)(C)NCC(O)c1cc(Cl)c(N)c(Cl)c1 (stereo unspecified) [Clenbuterol hydrochloride] | 1.13
CNCC(=O)c1ccc(O)c(O)c1 [Adrenalone HCl] | 0.984
CC(C)(c1ccc(OCC2CO2)cc1)c1ccc(OCC2CO2)cc1 (stereo unspecified) | 1.1 ± 0.018
CC(C)N(CCNC(=O)CN1CCCC1=O)C(C)C [Pramiracetam] | 0.865
C[C@](O)(COc1ccc(C#N)cc1)C(=O)Nc1ccc(C#N)c(C(F)(F)F)c1 [Ostarine (MK-2866)] | 1.06
CCCN(CCC)C1CCc2ccc(O)cc2C1 (stereo unspecified) [7-Hydroxy-DPAT hydrobromide] | 1.09

A few values from the results shown:
For surface PD-L1 immunofluorescence intensity, CCC(COC(=O)c1cc(OC)c(OC)c(OC)c1)(c1ccccc1)N(C)C (stereo unspecified) [Trimebutine] reads 1.02
For surface PD-L1 immunofluorescence intensity, CCC1(CC)C(=O)C=CNC1=O [Pyrithyldione] reads 0.949

Next results follow.

SMILES | surface PD-L1 immunofluorescence intensity
COc1ccc(CCN2CCC(Nc3nc4ccccc4n3Cc3ccc(F)cc3)CC2)cc1 [Astemizole] | 0.987
CC(=O)Nc1ccc(OC[C@](C)(O)C(=O)Nc2ccc([N+](=O)[O-])c(C(F)(F)F)c2)cc1 [Andarine (GTX-007)] | 1.04
Oc1cc2c(cc1O)[C@H]1c3ccccc3CN[C@@H]1CC2 (racemic) [Dihydrexidine hydrochloride] | 1.01
BrC1C(Br)C(Br)C(Br)C(Br)C1Br (stereo unspecified) [1,2,3,4,5,6-Hexabromocyclohexane] | 0.971
CCN(CC)C(C)C(=O)c1ccccc1 (stereo unspecified) [Amfepramone hydrochloride] | 0.947
COC(=O)/C=C/C(=O)N[C@@H]1CC[C@@]2(O)[C@H]3Cc4ccc(O)c5c4[C@@]2(CCN3CC2CC2)[C@H]1O5 | 1.05
O=C1CCCN1CC#CCN1CCCC1 [Oxotremorine sesquifumarate] | 0.93
O[C@@H]1CCCC[C@H]1N1CCC(c2ccccc2)CC1 [L(-)-vesamicol hydrochloride] | 1.09
C[N+]1([O-])[C@@H]2C[C@@H](OC(=O)[C@H](CO)c3ccccc3)C[C@H]1[C@@H]1O[C@@H]12 (stereo partly specified) [Scopolamin-N-oxide hydrobromide] | 0.918
Oc1cc(Cl)ccc1Oc1ccc(Cl)cc1Cl [Triclosan] | 1.13
CC1(C)C(C=C(Cl)Cl)C1C(=O)OC(C#N)c1cccc(Oc2ccccc2)c1 (stereo unspecified) [Cypermethrin] | 1.07
N#CC(C#N)=Cc1ccc(O)cc1 [Tyrphostin 8] | 0.846
Cc1ccc(C[N+](C)(C)C)o1 [5-Methylfurmethiodide] | 1.01
CCCN(CCC)C1CCc2cccc(O)c2C1 (stereo unspecified) [8-Hydroxy-DPAT hydrobromide] | 1.01
O=C(O)c1ccc2[nH]cc(CCCCN3CC=C(c4ccccc4)CC3)c2c1 [Carmoxirole hydrochloride] | 0.976
CCN1C[C@]2(COC(=O)c3ccccc3N3C(=O)C[C@H](C)C3=O)CC[C@H](OC)[C@@]34[C@@H]5C[C@H]6[C@H](OC)[C@@H]5[C@](O)(C[C@@H]6OC)[C@](O)([C@@H](OC)[C@H]23)[C@@H]14 [Methyllycaconitine citrate] | 1.12
CCN1C[C@]2(COC)[C@H](O)C[C@H](OC)[C@@]34[C@@H]5C[C@@]6(O)[C@H](OC(=O)c7ccccc7)[C@@H]5[C@@](OC(C)=O)([C@@H]([C@H](OC)[C@H]23)[C@@H]14)[C@@H](O)[C@@H]6OC [Aconitine] | 1.06
C[N+]1(C)[C@@H]2C[C@@H](OC(=O)[C@H](CO)c3ccccc3)C[C@H]1[C@@H]1O[C@@H]12 [Methscopolamine (Pamine)] | 1.1
